Our source for the outcome values is patent US20250296961A1 (The University of Hong Kong, priority 2021, published 2025).

End groups of sequences in plain letters are not given here.

The data set in a line: peptide made by a vendor (Fmoc solid-phase peptide synthesis). The following applies: whole synthesis.

TFFRLFNRAKRHHGYKRKFHSpSp: the outcome is listed as “could not be synthesized due to the weak stability during fabrication”.
